Results deposited as PubChem BioAssay AID1053208 (Peter MacCallum Cancer Centre, 2014).

- Assay: 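Find knock-downs that sensitise mouse osteosarcoma cells to doxorubicin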 (primary screen)
- Cells: mouse osteosarcoma cells, early-passage culture from an engineered mouse model of fibroblastic bone tumour
- Reagents: siRNA pool against mouse genes, 40 nM
- Time to read-out: about 120 h (48 h before drug, then 72 h with drug)
- Challenge: doxorubicin 100 nM for 72 h, roughly 30-40% inhibitory dose
- Read-out: 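Luminescent ATP signal taken as viability with or without 100 nM doxorubicin for 72 h; mean of two wells set against non-targeting siRNA and turned into robust z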
- Scale: viability z-score with doxorubicin and doxorubicin viability vs non-targeting: higher = more viable cells under doxorubicin; viability z-score without drug: higher = more viable cells with knock-down alone; z-score of drug to no-drug ratio: higher = less drug sensitisation by knock-down
- Call rule: 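a pool counts as active when its viability z-score with doxorubicin is -2 or below and its z-score without drug lies between -2 and 2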
This is one part, drawn at random, of about 17,000 reagents. 788 of all reagents (4.7%) were called active. 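Calls rest on z-score classes alone; an extra cut-off of viability at most 70% of control was not applied to them.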 Unmarked entries are inactive.

gene | combined z-score class | viability z-score with doxorubicin | viability z-score without drug | z-score of drug to no-drug ratio | doxorubicin viability vs non-targeting
Timp2 (tissue inhibitor of metalloproteinase 2) | low cell count with doxorubicin only (active) | -2.14 | -1.18 | -1.46 | 0.75
Plau (plasminogen activator, urokinase) | no change with or without drug | 0.22 | 0.84 | -0.22 | 0.96
9330155M09Rik (RIKEN cDNA 9330155M09 gene) | no change with or without drug | -0.67 | -1.52 | 0.45 | 0.88
Cyp3a16 (cytochrome P450, family 3, subfamily a, polypeptide 16) | no change with or without drug | 0.34 | 0.51 | 0.11 | 0.97
Tspan5 (tetraspanin 5) | no change with or without drug | 1.01 | 0.17 | 1.01 | 1.03
Calm4 (calmodulin 4) | no change with or without drug | 0.34 | -0.17 | 0.56 | 0.97
Cdk13 (cyclin dependent kinase 13) | no change with or without drug | 1.8 | -0.51 | 2.47 | 1.1
Hba-x (hemoglobin X, alpha-like embryonic chain in Hba complex) | no change with or without drug | -0.22 | -0.67 | 0.34 | 0.92
Rpl13 (ribosomal protein L13) | low cell count with and without drug | -8.09 | -7.25 | -6.3 | 0.22
Pla2g10 (phospholipase A2, group X) | no change with or without drug | -0.34 | -0.17 | -0.11 | 0.91
Calr (calreticulin) | no change with or without drug | 0.34 | 0.34 | 0.22 | 0.97
Or52ae9 (olfactory receptor family 52 subfamily AE member 9) | no change with or without drug | -1.57 | -1.18 | -0.79 | 0.8
Clec4d (C-type lectin domain family 4, member d) | no change with or without drug | 1.57 | -0.84 | 2.47 | 1.08
Snapc5 (small nuclear RNA activating complex, polypeptide 5) | high cell count with and without drug | 2.02 | 2.36 | 0.56 | 1.12
Trappc6a (trafficking protein particle complex 6A) | no change with or without drug | -0.67 | 0.84 | -1.12 | 0.88
Ptges3l (prostaglandin E synthase 3 like) | no change with or without drug | -1.57 | -1.18 | -0.79 | 0.8
Arnt (aryl hydrocarbon receptor nuclear translocator) | no change with or without drug | 0.22 | 0.51 | 0 | 0.96
Elac2 (elaC ribonuclease Z 2) | no change with or without drug | 1.24 | 1.52 | 0.34 | 1.05
Pccb (propionyl Coenzyme A carboxylase, beta polypeptide) | no change with or without drug | 0.56 | -0.17 | 0.79 | 0.99
Lrrc23 (leucine rich repeat containing 23) | no change with or without drug | 1.12 | -0.17 | 1.46 | 1.04
Atp6v0d2 (ATPase, H+ transporting, lysosomal V0 subunit D2) | no change with or without drug | 1.57 | 0.17 | 1.69 | 1.08
Dusp3 | low cell count with and without drug | -2.7 | -2.53 | -1.24 | 0.7
Lgsn (lengsin, lens protein with glutamine synthetase domain) | no change with or without drug | -1.57 | -0.67 | -1.12 | 0.8
Taf1a | no change with or without drug | -0.22 | -1.52 | 1.01 | 0.92
Or2b7 (olfactory receptor family 2 subfamily B member 7) | low cell count with doxorubicin only (active) | -2.92 | -1.18 | -2.36 | 0.68
Atpaf2 (ATP synthase mitochondrial F1 complex assembly factor 2) | no change with or without drug | -0.67 | -0.17 | -0.45 | 0.88
Polr2d (polymerase (RNA) II (DNA directed) polypeptide D) | low cell count with and without drug | -4.72 | -6.58 | -0.56 | 0.52
Or4c127 (olfactory receptor family 4 subfamily C member 127) | low cell count without drug only | -1.8 | -2.02 | -0.45 | 0.78
Prkn (parkin RBR E3 ubiquitin protein ligase) | no change with or without drug | 0.45 | -0.17 | 0.67 | 0.98
Ctu1 (cytosolic thiouridylase subunit 1) | no change with or without drug | -1.8 | -1.52 | -0.79 | 0.78
Plxnb2 (plexin B2) | high cell count with doxorubicin only | 3.26 | 1.85 | 2.02 | 1.23
Noxa1 (NADPH oxidase activator 1) | no change with or without drug | -0.9 | -0.51 | -0.56 | 0.86
Or4k2 (olfactory receptor family 4 subfamily K member 2) | no change with or without drug | 0.45 | -0.17 | 0.67 | 0.98
V1ra8 (vomeronasal 1 receptor, A8) | no change with or without drug | -0.9 | 0 | -0.79 | 0.86
Suds3 (suppressor of defective silencing 3 homolog (S. cerevisiae)) | low cell count with doxorubicin only (active) | -3.82 | -1.52 | -3.15 | 0.6
Olfr197 (olfactory receptor 197) | no change with or without drug | 1.12 | -0.51 | 1.69 | 1.04
Cadps2 (Ca2+-dependent activator protein for secretion 2) | low cell count with doxorubicin only (active) | -4.27 | 1.52 | -4.95 | 0.56
Emc1 (ER membrane protein complex subunit 1) | no change with or without drug | 0.67 | 0.51 | 0.45 | 1
Mettl1 (methyltransferase 1, tRNA methylguanosine) | low cell count with and without drug | -3.6 | -3.54 | -1.57 | 0.62
Dcps (decapping enzyme, scavenger) | no change with or without drug | 1.57 | 1.18 | 0.9 | 1.08
Ctdp1 (CTD phosphatase subunit 1) | no change with or without drug | 0.11 | -0.34 | 0.45 | 0.95
Cldn4 (claudin 4) | no change with or without drug | -0.22 | 0.34 | -0.34 | 0.92
Strm (striamin) | no change with or without drug | -0.22 | 0.17 | -0.22 | 0.92
Cert1 (ceramide transporter 1) | low cell count with doxorubicin only (active) | -2.02 | -1.52 | -1.12 | 0.76
Ctbs (chitobiase) | no change with or without drug | -1.8 | -0.51 | -1.46 | 0.78
Shtn1 (shootin 1) | low cell count with doxorubicin only (active) | -3.48 | -0.17 | -3.48 | 0.63
Ceacam9 (CEA cell adhesion molecule 9) | low cell count with doxorubicin only (active) | -2.25 | -1.52 | -1.35 | 0.74
Dnase1l1 (deoxyribonuclease 1-like 1) | no change with or without drug | -1.12 | -0.17 | -1.01 | 0.84
Ahdc1 (AT hook, DNA binding motif, containing 1) | no change with or without drug | 1.35 | 0.84 | 0.9 | 1.06
B3gnt4 | no change with or without drug | 0.56 | 1.69 | -0.45 | 0.99

A run of entries of the results above, for reference:
gene | combined z-score class | viability z-score with doxorubicin | viability z-score without drug | z-score of drug to no-drug ratio | doxorubicin viability vs non-targeting
9330155M09Rik (RIKEN cDNA 9330155M09 gene) | no change with or without drug | -0.67 | -1.52 | 0.45 | 0.88
Cyp3a16 (cytochrome P450, family 3, subfamily a, polypeptide 16) | no change with or without drug | 0.34 | 0.51 | 0.11 | 0.97
Tspan5 (tetraspanin 5) | no change with or without drug | 1.01 | 0.17 | 1.01 | 1.03
Calm4 (calmodulin 4) | no change with or without drug | 0.34 | -0.17 | 0.56 | 0.97
Cdk13 (cyclin dependent kinase 13) | no change with or without drug | 1.8 | -0.51 | 2.47 | 1.1
